Reference: doi:10.1101/2023.06.22.545931
These are yes or no findings as the source states them, for the method shown. Binding seen in cells or lysates may run through a third protein. A yes stands for co-enrichment or nearness to the bait. Other partners may have been found.

T1: MX2-MUTT2A-TurboID (human) (UniProt P20592)
T1 sequence: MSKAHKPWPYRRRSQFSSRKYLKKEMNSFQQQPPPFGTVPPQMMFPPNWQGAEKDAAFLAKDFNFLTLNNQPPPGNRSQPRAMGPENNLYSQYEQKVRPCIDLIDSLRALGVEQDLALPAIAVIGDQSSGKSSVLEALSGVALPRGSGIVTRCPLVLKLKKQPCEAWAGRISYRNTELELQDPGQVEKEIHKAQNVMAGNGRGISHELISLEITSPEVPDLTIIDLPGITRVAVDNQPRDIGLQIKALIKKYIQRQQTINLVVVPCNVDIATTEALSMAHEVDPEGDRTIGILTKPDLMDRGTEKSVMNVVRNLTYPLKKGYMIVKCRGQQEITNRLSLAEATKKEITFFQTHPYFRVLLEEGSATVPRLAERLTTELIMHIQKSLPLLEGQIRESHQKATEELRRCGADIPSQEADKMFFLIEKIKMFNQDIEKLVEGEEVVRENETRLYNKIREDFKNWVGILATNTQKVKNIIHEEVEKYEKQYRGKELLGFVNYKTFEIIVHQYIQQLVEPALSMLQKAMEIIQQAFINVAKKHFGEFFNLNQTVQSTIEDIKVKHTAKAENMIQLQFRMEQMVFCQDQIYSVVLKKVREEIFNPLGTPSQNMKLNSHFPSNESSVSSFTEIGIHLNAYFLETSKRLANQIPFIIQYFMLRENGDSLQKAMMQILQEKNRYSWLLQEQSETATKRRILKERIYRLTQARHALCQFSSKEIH


molecular target: T1, MX2-MUTT2A-TurboID (human); test: proximity labelling

Binder | binding
nuclear transport receptor transportin-2 (TNPO2) (protein, UniProt O14787 1-897) MDWQPDEQGLQQVLQLLKDSQSPNTATQRIVQDKLKQLNQFPDFNNYLIFVLTRLKSEDEPTRSLSGLILKNNVKAHYQSFPPPVADFIKQECLNNIGDASSLIRATIGILITTIASKGELQMWPELLPQLCNLLNSEDYNTCEGAFGALQKICEDSSELLDSDALNRPLNIMIPKFLQFFKHCSPKIRSHAIACVNQFIMDRAQALMDNIDTFIEHLFALAVDDDPEVRKNVCRALVMLLEVRIDRLIPHMHSIIQYMLQRTQDHDENVALEACEFWLTLAEQPICKEVLASHLVQLIPILVNGMKYSEIDIILLKGDVEEDEAVPDSEQDIKPRFHKSRTVTLPHEAERPDGSEDAEDDDDDDALSDWNLRKCSAAALDVLANVFREELLPHLLPLLKGLLFHPEWVVKESGILVLGAIAEGCMQGMVPYLPELIPHLIQCLSDKKALVRSIACWTLSRYAHWVVSQPPDMHLKPLMTELLKRILDGNKRVQEAACSAFATLEEEACTELVPYLSYILDTLVFAFGKYQHKNLLILYDAIGTLADSVGHHLNQPEYIQKLMPPLIQKWNELKDEDKDLFPLLECLSSVATALQSGFLPYCEPVYQRCVTLVQKTLAQAMMYTQHPEQYEAPDKDFMIVALDLLSGLAEGLGGHVEQLVARSNIMTLLFQCMQDSMPEVRQSSFALLGDLTKACFIHVKPCIAEFMPILGTNLNPEFISVCNNATWAIGEICMQMGAEMQPYVQMVLNNLVEIINRPNTPKTLLENTGRLTSPSAIPAITIGRLGYVCPQEVAPMLQQFIRPWCTSLRNIRDNEEKDSAFRGICMMIGVNPGGVVQDFIFFCDAVASWVSPKDDLRDMFYKILHGFKDQVGEDNWQQFSEQFPPLLKERLAAFYGV | binds
NUP133 (protein, UniProt Q8WUM0 1-1156) MFPAAPSPRTPGTGSRRGPLAGLGPGSTPRTASRKGLPLGSAVSSPVLFSPVGRRSSLSSRGTPTRMFPHHSITESVNYDVKTFGSSLPVKVMEALTLAEVDDQLTINIDEGGWACLVCKEKLIIWKIALSPITKLSVCKELQLPPSDFHWSADLVALSYSSPSGEAHSTQAVAVMVATREGSIRYWPSLAGEDTYTEAFVDSGGDKTYSFLTAVQGGSFILSSSGSQLIRLIPESSGKIHQHILPQGQGMLSGIGRKVSSLFGILSPSSDLTLSSVLWDRERSSFYSLTSSNISKWELDDSSEKHAYSWDINRALKENITDAIWGSESNYEAIKEGVNIRYLDLKQNCDGLVILAAAWHSADNPCLIYYSLITIEDNGCQMSDAVTVEVTQYNPPFQSEDLILCQLTVPNFSNQTAYLYNESAVYVCSTGTGKFSLPQEKIVFNAQGDSVLGAGACGGVPIIFSRNSGLVSITSRENVSILAEDLEGSLASSVAGPNSESMIFETTTKNETIAQEDKIKLLKAAFLQYCRKDLGHAQMVVDELFSSHSDLDSDSELDRAVTQISVDLMDDYPASDPRWAESVPEEAPGFSNTSLIILHQLEDKMKAHSFLMDFIHQVGLFGRLGSFPVRGTPMATRLLLCEHAEKLSAAIVLKNHHSRLSDLVNTAILIALNKREYEIPSNLTPADVFFREVSQVDTICECLLEHEEQVLRDAPMDSIEWAEVVINVNNILKDMLQAASHYRQNRNSLYRREESLEKEPEYVPWTATSGPGGIRTVIIRQHEIVLKVAYPQADSNLRNIVTEQLVALIDCFLDGYVSQLKSVDKSSNRERYDNLEMEYLQKRSDLLSPLLSLGQYLWAASLAEKYCDFDILVQMCEQTDNQSRLQRYMTQFADQNFSDFLFRWYLEKGKRGKLLSQPISQHGQLANFLQAHEHLSWLHEINSQELEKAHATLLGLANMETRYFAKKKTLLGLSKLAALASDFSEDMLQEKIEEMAEQERFLLHQETLPEQLLAEKQLNLSAMPVLTAPQLIGLYICEENRRANEYDFKKALDLLEYIDEEEDININDLKLEILCKALQRDNWSSSDGKDDPIEVSKDSIFVKILQKLLKDGIQLSEYLPEVKDLLQADQLGSLKSNPYFEFVLKANYEYYVQGQI | binds
NUP85 (protein, UniProt Q9BW27 1-656) MEELDGEPTVTLIPGVNSKKNQMYFDWGPGEMLVCETSFNKKEKSEMVPSCPFIYIIRKDVDVYSQILRKLFNESHGIFLGLQRIDEELTGKSRKSQLVRVSKNYRSVIRACMEEMHQVAIAAKDPANGRQFSSQVSILSAMELIWNLCEILFIEVAPAGPLLLHLLDWVRLHVCEVDSLSADVLGSENPSKHDSFWNLVTILVLQGRLDEARQMLSKEADASPASAGICRIMGDLMRTMPILSPGNTQTLTELELKWQHWHEECERYLQDSTFATSPHLESLLKIMLGDEAALLEQKELLSNWYHFLVTRLLYSNPTVKPIDLHYYAQSSLDLFLGGESSPEPLDNILLAAFEFDIHQVIKECSIALSNWWFVAHLTDLLDHCKLLQSHNLYFGSNMREFLLLEYASGLFAHPSLWQLGVDYFDYCPELGRVSLELHIERIPLNTEQKALKVLRICEQRQMTEQVRSICKILAMKAVRNNRLGSALSWSIRAKDAAFATLVSDRFLRDYCERGCFSDLDLIDNLGPAMMLSDRLTFLGKYREFHRMYGEKRFADAASLLLSLMTSRIAPRSFWMTLLTDALPLLEQKQVIFSAEQTYELMRCLEDLTSRRPVHGESDTEQLQDDDIETTKVEMLRLSLARNLARAIIREGSLEGS | binds
